The values below come from PMC12722970.

For at least one entry, the source does not settle the construct or the ends of the probe.

This data set has as its system SsNST1 (His-SsNST1) (Saccharum spontaneum). Kind of data set: EMSA. As to conditions: EMSA as in Gao et al., 2019; pH and temperature not stated; recombinant protein; protein details: His; label: 5' 6-FAM.

Turning to “CAGAAATGTTTTCTGGAAAAGAAAGTAGTCAGAAATGTTTTCTGGAAAAGAAAGTAGT (double strand) [SsCESA9-SNBE probe]”, the binding result is reported as “binds”. The value for “TCGTGTGACGGTCAAGTCATCGTGTGACGGTCAAGTCATCGTGTGACGGTCAAGTCA (double strand) [SsCESA7-SNBE probe]” was “binds”. In the case of “TCTCTGTTTTAAACTATAAGTCATTCTATCTCTGTTTTAAACTATAAGTCATTCTA (double strand) [SsCESA4-SNBE probe]”, the binding result is “binds”.
